Read-outs that look alike come from different tables or passages of the source. These are yes or no findings as the source states them, for the method shown. For some assays here: Binding seen in cells or lysates may run through a third protein. Some entries that bind do so weakly or less than the wild type. For some assays here: Sequences can lack the tags named with a protein.
Experiments:
[1] = biological target: T1, ZFP281 (krüppel-like zinc finger transcription factor), endogenous in mouse ES cells (mouse (endogenous in mouse ES cells)) (UniProt Q99LI5); assay: SEC; mouse ES cell nuclear extract on Superose 6 increase 3.2/300, 40 mM HEPES pH 7.5, 350 mM NaCl, 10% glycerol, 0.1% Tween-20; fractions by western blot
T1 sequence: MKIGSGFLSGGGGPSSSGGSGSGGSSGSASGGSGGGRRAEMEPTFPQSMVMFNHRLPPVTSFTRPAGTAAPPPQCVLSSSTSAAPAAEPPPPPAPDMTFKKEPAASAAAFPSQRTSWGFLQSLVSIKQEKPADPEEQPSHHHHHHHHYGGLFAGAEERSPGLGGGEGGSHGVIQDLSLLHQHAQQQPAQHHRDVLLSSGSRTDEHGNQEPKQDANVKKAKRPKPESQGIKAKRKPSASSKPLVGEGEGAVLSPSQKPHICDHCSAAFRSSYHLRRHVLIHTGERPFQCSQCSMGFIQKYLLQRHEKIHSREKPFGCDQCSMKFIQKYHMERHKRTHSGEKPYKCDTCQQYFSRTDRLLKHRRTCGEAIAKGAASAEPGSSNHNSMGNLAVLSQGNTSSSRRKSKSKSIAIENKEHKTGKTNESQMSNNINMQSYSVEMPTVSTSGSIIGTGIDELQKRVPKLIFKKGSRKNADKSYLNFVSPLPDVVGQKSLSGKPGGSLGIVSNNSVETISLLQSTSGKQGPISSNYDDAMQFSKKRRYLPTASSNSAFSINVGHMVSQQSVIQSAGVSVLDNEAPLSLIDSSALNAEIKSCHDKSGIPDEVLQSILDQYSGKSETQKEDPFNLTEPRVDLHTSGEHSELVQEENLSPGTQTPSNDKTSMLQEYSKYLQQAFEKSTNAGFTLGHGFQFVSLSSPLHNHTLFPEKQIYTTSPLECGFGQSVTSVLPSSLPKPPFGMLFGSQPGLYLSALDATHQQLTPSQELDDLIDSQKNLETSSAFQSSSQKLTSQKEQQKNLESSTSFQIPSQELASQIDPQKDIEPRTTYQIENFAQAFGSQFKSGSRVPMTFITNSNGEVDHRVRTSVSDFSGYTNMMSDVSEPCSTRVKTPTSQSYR

Chains of the proteins cited; added tags and fusions are not shown.
UniProt Q80U70: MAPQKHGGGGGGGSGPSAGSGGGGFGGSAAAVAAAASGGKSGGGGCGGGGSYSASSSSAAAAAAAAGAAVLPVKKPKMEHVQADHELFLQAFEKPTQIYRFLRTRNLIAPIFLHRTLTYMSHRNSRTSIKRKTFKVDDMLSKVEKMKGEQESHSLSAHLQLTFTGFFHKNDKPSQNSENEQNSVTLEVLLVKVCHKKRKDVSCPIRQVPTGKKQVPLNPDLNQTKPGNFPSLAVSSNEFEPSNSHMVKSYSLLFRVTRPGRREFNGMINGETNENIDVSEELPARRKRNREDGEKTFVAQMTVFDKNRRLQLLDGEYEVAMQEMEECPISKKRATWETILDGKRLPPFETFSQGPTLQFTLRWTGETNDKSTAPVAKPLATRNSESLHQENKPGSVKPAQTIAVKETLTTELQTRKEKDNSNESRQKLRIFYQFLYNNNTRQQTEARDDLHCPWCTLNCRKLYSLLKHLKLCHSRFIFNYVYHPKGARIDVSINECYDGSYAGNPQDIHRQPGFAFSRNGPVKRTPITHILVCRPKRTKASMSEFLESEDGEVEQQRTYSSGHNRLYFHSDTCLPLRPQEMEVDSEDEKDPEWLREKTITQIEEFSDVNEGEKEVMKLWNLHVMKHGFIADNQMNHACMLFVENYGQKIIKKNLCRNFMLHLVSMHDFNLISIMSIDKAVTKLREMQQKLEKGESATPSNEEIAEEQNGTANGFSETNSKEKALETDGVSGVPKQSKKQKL
UniProt P97929: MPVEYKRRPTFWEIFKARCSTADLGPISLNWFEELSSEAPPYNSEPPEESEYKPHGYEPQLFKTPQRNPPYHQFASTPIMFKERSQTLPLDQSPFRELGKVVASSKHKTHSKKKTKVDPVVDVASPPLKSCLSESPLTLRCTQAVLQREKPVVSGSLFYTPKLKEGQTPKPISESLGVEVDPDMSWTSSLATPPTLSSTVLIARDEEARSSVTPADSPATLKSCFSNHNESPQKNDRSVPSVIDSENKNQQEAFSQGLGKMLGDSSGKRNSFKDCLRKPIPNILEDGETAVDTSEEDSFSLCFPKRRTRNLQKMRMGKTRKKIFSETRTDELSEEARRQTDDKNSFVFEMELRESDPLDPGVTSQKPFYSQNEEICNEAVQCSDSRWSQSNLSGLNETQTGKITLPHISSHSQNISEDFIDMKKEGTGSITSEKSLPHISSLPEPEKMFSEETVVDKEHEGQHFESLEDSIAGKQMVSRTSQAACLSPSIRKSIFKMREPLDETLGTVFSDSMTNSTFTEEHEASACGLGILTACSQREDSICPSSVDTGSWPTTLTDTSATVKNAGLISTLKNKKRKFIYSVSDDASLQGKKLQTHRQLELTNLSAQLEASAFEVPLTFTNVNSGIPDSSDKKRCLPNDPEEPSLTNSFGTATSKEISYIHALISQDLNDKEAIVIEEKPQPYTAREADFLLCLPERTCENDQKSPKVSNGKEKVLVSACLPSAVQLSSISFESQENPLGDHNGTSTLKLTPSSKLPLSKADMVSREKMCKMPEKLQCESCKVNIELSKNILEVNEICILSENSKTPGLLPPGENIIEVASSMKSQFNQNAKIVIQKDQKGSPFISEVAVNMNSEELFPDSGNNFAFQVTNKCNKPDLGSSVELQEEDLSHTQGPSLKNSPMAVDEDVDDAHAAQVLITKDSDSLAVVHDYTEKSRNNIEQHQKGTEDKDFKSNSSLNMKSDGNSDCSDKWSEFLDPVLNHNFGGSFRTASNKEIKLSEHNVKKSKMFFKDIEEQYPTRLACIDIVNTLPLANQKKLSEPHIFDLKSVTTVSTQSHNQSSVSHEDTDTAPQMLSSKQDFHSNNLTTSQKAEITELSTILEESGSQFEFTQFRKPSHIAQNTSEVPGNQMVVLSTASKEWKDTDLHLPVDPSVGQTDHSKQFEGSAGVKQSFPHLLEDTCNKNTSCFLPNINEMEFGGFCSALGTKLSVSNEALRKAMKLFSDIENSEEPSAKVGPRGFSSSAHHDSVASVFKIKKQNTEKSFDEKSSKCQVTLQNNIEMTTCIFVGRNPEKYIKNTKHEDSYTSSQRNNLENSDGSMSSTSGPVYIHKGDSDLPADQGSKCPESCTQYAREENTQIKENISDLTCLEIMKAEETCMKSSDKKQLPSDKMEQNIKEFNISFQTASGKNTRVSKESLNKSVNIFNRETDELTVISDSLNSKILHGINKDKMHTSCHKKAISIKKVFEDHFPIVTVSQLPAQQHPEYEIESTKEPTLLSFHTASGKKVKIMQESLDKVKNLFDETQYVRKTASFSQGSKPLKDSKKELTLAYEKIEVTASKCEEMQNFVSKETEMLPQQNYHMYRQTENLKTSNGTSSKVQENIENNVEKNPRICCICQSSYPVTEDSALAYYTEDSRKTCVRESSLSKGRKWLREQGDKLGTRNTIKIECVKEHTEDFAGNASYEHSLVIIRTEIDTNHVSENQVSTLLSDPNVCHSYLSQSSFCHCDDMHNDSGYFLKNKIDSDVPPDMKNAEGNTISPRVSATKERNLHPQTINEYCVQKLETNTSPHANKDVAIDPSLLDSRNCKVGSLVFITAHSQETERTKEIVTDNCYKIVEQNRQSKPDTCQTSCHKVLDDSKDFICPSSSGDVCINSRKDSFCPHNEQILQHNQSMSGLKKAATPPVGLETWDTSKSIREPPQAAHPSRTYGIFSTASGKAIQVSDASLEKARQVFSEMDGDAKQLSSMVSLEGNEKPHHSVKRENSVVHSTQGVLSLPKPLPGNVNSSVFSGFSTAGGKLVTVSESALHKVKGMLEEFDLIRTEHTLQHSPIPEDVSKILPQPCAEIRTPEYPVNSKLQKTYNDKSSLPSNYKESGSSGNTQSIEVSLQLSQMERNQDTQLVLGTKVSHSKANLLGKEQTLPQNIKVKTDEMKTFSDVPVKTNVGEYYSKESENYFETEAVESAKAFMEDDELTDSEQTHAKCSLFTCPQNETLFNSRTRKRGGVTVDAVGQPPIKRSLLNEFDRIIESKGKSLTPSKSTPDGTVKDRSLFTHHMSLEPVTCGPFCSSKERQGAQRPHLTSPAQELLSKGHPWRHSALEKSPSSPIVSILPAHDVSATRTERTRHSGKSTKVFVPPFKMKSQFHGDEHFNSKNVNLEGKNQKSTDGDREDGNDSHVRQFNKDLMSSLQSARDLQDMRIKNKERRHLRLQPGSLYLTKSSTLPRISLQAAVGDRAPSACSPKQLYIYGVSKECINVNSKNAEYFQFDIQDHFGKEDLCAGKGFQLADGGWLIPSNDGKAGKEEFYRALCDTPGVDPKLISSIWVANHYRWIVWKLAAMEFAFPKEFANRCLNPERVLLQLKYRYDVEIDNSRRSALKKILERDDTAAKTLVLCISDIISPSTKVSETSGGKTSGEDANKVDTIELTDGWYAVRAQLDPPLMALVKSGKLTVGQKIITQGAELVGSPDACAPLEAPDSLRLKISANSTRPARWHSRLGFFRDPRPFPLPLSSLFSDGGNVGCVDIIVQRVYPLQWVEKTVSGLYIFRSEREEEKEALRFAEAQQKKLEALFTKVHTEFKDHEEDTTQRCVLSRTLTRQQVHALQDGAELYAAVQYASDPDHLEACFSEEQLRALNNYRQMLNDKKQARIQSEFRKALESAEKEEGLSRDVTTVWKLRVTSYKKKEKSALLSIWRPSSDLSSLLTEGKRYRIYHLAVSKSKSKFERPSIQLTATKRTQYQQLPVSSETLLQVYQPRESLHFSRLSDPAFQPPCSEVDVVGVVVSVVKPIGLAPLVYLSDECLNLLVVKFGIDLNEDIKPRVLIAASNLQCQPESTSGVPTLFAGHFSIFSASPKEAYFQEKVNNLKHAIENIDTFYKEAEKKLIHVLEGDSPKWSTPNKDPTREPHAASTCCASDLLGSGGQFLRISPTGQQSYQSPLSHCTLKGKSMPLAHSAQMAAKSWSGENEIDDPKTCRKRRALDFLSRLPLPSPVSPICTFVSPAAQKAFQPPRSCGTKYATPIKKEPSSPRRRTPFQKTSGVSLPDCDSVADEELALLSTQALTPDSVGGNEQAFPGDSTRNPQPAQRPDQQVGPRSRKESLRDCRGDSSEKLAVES
UniProt A0A338P6K9: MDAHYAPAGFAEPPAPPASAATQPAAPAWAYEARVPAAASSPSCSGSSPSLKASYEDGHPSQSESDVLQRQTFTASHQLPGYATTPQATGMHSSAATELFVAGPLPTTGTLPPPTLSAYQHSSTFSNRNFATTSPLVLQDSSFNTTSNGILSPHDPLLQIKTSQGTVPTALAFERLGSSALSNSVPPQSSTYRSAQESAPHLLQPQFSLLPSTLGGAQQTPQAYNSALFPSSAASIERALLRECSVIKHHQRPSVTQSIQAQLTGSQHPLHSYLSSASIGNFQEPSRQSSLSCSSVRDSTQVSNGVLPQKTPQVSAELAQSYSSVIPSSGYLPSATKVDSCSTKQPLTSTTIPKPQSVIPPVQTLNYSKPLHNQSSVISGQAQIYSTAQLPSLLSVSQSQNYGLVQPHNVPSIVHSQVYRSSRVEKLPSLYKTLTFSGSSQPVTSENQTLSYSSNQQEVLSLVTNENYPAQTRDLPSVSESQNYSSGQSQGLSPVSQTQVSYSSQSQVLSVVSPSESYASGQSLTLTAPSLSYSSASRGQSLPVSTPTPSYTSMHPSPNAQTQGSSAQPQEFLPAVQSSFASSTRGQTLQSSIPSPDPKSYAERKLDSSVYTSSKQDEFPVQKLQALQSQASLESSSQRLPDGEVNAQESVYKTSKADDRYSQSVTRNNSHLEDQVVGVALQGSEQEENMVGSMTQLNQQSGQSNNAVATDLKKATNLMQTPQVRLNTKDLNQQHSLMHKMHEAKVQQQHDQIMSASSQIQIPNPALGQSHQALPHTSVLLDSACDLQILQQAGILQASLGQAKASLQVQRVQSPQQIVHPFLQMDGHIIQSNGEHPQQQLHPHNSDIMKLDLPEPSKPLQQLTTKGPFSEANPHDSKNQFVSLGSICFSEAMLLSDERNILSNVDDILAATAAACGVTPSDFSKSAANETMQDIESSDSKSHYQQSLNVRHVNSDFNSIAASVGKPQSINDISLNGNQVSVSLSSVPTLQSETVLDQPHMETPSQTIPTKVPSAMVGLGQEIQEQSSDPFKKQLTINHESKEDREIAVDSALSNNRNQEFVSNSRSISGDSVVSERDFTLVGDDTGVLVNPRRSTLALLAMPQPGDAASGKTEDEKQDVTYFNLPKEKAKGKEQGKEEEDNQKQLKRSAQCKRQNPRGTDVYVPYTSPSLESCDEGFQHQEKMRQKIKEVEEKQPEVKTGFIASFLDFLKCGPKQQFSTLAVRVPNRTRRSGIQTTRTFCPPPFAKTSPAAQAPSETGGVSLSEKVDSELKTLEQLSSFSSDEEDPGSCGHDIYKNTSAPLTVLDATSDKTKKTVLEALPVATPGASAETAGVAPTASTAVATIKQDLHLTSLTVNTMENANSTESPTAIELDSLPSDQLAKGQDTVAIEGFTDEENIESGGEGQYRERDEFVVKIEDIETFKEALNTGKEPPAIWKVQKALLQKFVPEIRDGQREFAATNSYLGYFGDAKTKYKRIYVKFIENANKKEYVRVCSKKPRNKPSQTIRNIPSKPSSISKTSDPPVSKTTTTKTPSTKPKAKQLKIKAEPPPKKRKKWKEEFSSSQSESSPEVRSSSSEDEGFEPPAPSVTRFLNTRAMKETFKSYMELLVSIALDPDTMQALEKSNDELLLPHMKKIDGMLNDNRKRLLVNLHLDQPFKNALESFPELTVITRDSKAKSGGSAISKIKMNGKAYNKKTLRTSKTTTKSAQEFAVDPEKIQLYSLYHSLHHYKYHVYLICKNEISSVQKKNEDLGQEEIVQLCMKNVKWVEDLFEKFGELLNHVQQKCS
UniProt P17918: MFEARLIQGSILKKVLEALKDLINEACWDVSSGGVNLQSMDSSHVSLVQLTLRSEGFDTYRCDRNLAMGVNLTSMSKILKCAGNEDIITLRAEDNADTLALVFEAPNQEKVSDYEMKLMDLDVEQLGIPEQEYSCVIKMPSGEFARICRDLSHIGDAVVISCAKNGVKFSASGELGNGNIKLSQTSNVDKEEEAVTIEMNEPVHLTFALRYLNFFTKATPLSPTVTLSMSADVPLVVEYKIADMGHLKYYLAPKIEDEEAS

[2] = biological target: T1, ZFP281 (krüppel-like zinc finger transcription factor), endogenous in mouse ES cells (mouse (endogenous in mouse ES cells)); assay: co-IP; endogenous proteins; cells lysed at 420 mM NaCl, brought to 300 mM NaCl, antibodies and protein A beads overnight at 4 °C, western blot; mouse ES cell lysates (named for Fig. 4b); WT and ZFP281 KO cells in Fig. 5i
[3] = biological target: SUZ12, core component of PRC2, endogenous (UniProt Q80U70); assay: as above
[4] = biological target: T2, EMSY, endogenous in mouse ES cells (mouse (endogenous in mouse ES cells)) (UniProt Q8BMB0); assay: as above
T2 sequence: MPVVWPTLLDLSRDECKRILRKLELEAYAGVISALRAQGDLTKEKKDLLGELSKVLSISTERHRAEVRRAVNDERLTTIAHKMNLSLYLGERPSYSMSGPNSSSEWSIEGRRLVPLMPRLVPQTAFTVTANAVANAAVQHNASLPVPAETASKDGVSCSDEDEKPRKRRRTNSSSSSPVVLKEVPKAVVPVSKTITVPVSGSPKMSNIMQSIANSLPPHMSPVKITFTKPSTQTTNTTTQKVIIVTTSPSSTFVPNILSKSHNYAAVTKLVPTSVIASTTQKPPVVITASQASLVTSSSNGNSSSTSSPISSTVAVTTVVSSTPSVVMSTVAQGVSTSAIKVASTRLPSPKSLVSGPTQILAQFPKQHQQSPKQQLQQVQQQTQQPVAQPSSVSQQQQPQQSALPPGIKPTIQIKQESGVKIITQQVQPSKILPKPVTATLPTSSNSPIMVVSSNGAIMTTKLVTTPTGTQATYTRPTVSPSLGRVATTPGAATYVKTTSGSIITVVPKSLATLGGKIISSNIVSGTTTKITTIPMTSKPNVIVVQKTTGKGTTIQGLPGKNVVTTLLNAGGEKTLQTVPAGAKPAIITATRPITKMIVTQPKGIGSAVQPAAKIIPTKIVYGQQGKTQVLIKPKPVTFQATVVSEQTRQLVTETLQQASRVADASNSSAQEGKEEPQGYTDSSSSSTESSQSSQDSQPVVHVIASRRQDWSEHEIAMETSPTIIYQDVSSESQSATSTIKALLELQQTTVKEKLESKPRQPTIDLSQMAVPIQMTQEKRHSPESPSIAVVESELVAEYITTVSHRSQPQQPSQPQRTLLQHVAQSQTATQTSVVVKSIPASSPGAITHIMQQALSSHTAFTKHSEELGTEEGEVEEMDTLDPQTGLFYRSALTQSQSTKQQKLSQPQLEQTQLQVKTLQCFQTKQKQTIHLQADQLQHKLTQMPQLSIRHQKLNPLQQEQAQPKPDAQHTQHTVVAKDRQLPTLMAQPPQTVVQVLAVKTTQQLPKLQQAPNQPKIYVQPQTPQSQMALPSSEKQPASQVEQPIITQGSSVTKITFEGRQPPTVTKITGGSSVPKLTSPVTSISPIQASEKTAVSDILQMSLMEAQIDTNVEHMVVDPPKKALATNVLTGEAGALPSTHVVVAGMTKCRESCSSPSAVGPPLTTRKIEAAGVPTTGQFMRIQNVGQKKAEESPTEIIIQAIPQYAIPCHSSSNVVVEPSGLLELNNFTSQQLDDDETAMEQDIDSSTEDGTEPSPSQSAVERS

[5] = biological target: BRCA2, endogenous in mouse ES cells (mouse (endogenous in mouse ES cells)) (UniProt P97929); assay: as above
[6] = biological target: T3, FLAG-tagged full length ZFP281 (UniProt Q99LI5); assay: co-IP; N-terminally FLAG-tagged ZFP281 (full length, truncated) or BRCA2 truncated proteins expressed in 293 T cells for 48 hrs; ANTI-FLAG M2 affinity gel, western blot
T3 sequence: T1 sequence

[7] = biological target: T1, ZFP281 (krüppel-like zinc finger transcription factor), endogenous in mouse ES cells (mouse (endogenous in mouse ES cells)); assay: proximity ligation; Duolink In Situ PLA on fixed mouse ESCs with antibodies against ZFP281 and PCNA; cells treated with DMSO or APH (0.3 μM, 16 h)
[8] = biological target: T1, ZFP281 (krüppel-like zinc finger transcription factor), endogenous in mouse ES cells (mouse (endogenous in mouse ES cells)); assay: co-IP; endogenous proteins; cells lysed at 420 mM NaCl, brought to 300 mM NaCl, antibodies and protein A beads overnight at 4 °C, western blot; mouse ES cell lysates (named for Fig. 4b); WT and ZFP281 KO cells in Fig. 5i; remark: listed apart in the source
[9] = biological target: BRCA2, endogenous in mouse ES cells (mouse (endogenous in mouse ES cells)) (UniProt P97929); assay: as above; remark: listed apart in the source
[10] = biological target: SUZ12, core component of PRC2, endogenous (UniProt Q80U70); assay: as above; remark: listed apart in the source

## BRCA2, endogenous in mouse ES cells (from UniProt P97929 1-3329)
[1]
  binding: binds
[2]
  binding: binds
[3]
  binding: binds

## QSER1, endogenous in mouse ES cells (from UniProt A0A338P6K9 1-1788)
[1]
  binding: binds
[4]
  binding: binds
[2]
  binding: binds
[5]
  binding: binds

## QSER1 in 293 cells (from UniProt Q2KHR3 1-1735)
[6]
  binding: binds

## proliferating cell nuclear antigen (PCNA), endogenous in mouse ES cells (from UniProt P17918 1-261)
[7]
  binding: binds
[2]
  binding: binds

B1: EMSY, endogenous in mouse ES cells (protein, UniProt Q8BMB0 1-1264)
chain: T2 sequence
[8]
  binding: binds
[9]
  binding: binds
[1]
  binding: binds

B2: ZFP281 (krüppel-like zinc finger transcription factor), endogenous in mouse ES cells (protein, UniProt Q99LI5 1-893)
chain: T1 sequence
[10]
  binding: binds

Source: publication PMC9205938
